This is one part of the list.
Compound: C[C@@H]1COCCN1C2=NC(=NC(=C2)C3(CC3)S(=O)(=O)C)C4=C5C=CNC5=CC=C4
Experiment: log2 fold change, soluble protein after heating vs DMSO (PISA); higher = thermal stabilisation; K562 cells, 10 uM, 30 min; active = over 0.2 and 3.5 SD of the protein, either way, in both replicates (recomputed)
How it was run: (§1)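 Soluble protein was defined as the supernatant after 21,000xg for 90 min. It came from K562 cells at 2×10^6 cells/mL given 10 μM compound for 30 min, heated in aliquots for 3 min across 48°C-58°C, pooled, and extracted in PBS with 0.5% NP-40 at 4°C, and was quantified by TMTpro 16plex LC-MS/MS with equalised channel sums. Thermal stability against control samples, from duplicates, is reported as log2 fold change.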

Sequences of proteins named here, by UniProt entry; tags and fusion partners are left off. A change or cut given only in a name is not applied to a line headed by its entry.
UniProt Q92609: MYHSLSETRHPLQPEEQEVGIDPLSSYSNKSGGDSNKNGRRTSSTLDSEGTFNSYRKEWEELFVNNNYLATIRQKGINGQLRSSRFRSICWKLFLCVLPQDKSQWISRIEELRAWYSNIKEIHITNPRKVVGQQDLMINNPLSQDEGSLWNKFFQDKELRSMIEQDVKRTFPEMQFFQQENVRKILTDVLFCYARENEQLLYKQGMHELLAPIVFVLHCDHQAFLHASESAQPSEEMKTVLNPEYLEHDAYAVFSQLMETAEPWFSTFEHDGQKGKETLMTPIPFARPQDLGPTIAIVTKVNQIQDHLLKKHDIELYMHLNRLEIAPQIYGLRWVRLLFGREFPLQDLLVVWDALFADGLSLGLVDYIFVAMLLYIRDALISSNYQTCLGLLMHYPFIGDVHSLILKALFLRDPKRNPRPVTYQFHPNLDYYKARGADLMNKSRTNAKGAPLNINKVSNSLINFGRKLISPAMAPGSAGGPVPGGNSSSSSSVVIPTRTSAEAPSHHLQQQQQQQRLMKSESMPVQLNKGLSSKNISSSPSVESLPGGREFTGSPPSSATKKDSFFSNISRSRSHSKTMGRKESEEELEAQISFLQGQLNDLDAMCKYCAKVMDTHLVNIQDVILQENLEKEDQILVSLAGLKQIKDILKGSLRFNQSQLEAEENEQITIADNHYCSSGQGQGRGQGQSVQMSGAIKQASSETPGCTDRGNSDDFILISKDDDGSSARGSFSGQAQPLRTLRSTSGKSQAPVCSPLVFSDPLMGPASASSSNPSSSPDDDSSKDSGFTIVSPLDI
UniProt P10646, whole entry, looked up: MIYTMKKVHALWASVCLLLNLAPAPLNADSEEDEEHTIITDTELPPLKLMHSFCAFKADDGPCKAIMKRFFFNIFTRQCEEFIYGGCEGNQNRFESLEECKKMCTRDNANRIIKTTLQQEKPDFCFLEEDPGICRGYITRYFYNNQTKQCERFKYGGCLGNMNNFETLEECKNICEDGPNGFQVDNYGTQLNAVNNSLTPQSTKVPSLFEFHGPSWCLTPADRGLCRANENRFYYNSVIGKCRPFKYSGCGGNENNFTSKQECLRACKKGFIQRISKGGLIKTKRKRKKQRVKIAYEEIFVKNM
UniProt Q969Z0: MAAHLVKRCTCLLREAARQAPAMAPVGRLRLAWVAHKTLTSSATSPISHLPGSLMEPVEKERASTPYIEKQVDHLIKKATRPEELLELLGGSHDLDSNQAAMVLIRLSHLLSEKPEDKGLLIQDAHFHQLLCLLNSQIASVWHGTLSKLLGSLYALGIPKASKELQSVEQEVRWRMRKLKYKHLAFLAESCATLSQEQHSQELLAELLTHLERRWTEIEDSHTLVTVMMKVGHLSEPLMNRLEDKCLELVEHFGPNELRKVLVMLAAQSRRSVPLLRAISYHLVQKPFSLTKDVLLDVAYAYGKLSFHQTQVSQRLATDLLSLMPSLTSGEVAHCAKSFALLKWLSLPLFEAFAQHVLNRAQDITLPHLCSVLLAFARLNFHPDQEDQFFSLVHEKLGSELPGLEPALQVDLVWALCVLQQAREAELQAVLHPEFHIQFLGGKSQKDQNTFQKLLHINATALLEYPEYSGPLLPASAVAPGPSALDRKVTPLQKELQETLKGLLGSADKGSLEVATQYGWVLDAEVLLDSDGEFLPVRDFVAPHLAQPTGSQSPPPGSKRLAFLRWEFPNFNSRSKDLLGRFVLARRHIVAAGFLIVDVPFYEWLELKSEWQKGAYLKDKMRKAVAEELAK
UniProt Q9UDY2: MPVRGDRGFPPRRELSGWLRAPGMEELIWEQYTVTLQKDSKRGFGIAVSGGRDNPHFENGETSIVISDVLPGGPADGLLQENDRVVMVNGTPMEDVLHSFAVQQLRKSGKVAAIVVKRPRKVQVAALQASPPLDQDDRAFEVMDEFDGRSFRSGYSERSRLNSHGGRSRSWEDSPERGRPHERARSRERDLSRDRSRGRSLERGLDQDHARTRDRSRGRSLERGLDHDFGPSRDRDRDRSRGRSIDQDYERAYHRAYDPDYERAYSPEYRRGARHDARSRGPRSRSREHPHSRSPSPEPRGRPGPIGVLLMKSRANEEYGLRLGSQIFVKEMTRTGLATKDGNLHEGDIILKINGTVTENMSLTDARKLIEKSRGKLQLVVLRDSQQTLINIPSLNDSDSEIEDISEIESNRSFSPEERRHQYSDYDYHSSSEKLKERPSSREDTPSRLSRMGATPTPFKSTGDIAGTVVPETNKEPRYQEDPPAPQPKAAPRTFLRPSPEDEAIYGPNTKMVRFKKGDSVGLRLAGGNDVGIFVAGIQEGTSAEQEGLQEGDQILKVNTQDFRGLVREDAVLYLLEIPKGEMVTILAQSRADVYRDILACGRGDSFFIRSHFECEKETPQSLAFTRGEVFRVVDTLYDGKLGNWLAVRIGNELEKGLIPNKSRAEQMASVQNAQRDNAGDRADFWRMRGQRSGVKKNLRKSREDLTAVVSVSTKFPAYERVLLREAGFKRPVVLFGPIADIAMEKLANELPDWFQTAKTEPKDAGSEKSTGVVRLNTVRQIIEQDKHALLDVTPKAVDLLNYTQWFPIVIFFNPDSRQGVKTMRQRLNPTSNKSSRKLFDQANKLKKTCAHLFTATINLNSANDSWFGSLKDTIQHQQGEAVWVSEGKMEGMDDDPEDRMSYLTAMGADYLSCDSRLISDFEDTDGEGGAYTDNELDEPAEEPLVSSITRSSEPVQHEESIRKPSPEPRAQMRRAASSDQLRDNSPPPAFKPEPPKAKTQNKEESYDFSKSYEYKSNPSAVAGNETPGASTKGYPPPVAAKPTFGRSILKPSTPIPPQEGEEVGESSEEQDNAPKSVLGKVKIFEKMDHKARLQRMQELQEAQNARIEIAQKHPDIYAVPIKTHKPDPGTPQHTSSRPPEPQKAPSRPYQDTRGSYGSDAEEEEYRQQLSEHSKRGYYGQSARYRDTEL
UniProt Q9BTW9: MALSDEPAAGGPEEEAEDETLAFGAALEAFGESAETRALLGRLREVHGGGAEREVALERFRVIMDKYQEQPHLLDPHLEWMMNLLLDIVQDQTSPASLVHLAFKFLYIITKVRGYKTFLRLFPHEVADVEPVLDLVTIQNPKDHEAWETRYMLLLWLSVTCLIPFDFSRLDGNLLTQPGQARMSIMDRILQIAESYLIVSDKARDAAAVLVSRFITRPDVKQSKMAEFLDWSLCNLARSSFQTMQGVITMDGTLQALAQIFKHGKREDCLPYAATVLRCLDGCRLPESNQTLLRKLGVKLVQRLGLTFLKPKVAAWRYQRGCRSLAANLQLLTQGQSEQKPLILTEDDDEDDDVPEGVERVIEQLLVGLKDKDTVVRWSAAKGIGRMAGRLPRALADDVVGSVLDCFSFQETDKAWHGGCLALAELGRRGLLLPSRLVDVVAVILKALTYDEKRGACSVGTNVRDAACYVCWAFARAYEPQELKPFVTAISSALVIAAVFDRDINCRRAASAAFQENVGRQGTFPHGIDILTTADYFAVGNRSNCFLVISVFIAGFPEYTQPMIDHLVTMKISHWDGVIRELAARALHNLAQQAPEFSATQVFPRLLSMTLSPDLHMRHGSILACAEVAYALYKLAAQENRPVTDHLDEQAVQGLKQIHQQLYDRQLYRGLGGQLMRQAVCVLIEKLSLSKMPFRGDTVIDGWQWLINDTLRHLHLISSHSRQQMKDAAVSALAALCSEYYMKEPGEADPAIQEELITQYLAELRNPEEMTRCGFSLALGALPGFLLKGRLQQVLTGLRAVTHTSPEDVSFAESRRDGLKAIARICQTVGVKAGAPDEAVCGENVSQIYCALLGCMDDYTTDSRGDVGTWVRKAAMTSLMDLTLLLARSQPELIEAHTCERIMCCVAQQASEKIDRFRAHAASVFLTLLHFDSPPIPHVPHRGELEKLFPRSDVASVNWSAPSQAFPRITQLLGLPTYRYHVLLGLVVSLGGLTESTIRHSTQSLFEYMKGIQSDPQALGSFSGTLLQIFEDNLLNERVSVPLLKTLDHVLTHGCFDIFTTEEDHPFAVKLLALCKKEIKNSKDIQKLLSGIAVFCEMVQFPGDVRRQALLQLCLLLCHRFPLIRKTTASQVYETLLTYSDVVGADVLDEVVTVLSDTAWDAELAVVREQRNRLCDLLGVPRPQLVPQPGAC
UniProt Q9ULP9: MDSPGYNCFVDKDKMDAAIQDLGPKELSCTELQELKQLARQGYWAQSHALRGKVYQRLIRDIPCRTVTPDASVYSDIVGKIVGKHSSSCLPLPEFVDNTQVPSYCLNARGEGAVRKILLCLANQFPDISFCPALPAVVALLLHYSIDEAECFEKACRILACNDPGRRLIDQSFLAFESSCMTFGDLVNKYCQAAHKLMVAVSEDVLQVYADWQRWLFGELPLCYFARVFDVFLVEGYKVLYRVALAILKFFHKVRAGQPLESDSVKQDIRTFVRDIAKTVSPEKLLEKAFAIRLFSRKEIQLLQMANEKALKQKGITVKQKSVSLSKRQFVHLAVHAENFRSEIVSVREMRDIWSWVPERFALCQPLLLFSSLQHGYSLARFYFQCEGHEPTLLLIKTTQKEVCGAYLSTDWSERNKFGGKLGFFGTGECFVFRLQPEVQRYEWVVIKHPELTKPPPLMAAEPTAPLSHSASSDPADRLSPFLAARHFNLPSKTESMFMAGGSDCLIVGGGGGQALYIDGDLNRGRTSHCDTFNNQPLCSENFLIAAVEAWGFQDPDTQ
UniProt O00142: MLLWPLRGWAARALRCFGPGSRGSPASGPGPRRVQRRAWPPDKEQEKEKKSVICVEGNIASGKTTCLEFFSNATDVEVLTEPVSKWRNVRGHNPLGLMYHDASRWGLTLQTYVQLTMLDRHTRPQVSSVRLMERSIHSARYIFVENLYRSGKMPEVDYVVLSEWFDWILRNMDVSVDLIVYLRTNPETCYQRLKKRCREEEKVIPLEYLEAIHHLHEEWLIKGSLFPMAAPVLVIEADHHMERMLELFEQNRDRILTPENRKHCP
UniProt P19532: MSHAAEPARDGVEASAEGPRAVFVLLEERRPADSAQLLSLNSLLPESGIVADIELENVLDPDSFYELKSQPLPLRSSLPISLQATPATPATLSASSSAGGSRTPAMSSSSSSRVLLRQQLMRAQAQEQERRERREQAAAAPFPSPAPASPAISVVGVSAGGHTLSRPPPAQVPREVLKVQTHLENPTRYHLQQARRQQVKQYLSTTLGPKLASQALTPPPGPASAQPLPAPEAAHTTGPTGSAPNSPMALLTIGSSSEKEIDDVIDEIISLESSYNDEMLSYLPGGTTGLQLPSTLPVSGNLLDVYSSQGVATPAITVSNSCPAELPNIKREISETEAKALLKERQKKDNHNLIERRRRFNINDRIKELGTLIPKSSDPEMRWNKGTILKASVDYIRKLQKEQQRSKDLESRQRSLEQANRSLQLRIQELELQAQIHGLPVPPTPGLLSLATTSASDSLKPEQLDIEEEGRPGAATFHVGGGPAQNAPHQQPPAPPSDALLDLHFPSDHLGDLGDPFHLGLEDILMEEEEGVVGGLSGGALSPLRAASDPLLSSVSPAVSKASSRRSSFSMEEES
UniProt Q13488, whole entry, looked up: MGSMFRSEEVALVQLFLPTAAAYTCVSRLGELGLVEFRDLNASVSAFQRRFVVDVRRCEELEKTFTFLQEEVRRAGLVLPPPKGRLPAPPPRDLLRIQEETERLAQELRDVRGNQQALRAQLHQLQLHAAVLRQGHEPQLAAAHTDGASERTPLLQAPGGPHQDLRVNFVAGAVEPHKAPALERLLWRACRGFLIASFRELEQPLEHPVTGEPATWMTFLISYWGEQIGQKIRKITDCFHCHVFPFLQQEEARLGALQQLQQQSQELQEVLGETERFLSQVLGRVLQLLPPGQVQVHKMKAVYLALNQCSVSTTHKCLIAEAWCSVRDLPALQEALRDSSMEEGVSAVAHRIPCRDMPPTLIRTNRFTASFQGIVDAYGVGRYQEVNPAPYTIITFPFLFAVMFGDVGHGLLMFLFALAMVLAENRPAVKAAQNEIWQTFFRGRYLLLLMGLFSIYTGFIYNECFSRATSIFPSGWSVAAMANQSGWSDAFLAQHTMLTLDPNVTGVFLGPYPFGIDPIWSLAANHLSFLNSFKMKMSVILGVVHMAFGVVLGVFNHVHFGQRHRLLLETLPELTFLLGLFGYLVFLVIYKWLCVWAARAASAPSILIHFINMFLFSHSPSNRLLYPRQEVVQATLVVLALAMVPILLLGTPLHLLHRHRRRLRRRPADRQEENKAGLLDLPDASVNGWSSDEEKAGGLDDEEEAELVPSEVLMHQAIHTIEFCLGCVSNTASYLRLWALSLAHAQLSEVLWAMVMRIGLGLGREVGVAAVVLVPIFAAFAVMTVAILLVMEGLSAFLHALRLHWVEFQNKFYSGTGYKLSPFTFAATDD
UniProt Q15170: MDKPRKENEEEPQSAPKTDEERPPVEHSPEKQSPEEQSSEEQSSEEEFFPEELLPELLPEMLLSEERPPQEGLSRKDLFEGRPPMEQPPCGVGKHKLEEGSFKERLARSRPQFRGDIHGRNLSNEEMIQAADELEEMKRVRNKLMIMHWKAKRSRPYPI

log2 fold change, inactive:
TERF2IP (UniProt Q9NYB0) -0.072
TBC1D23 (UniProt Q9NUY8) 0.022
TFAM (UniProt Q00059) -0.153
TGS1 (UniProt Q96RS0) -0.07
TIPRL (UniProt O75663) 0.143
TFCP2 (UniProt Q12800) -0.11
TBC1D5 isoform 2 (UniProt Q92609) -0.003
TDRD7 (UniProt Q8NHU6) 0.749
TBC1D20 isoform 3 (UniProt Q96BZ9) 0.088
TGFBI (UniProt Q15582) 0.215
TJP1 (UniProt Q07157) 0.044
TFPI (UniProt P10646) -0.046
TBP (UniProt P20226) -0.021
TFDP1 (UniProt Q14186) -0.066
TBRG4 (UniProt Q969Z0) 0.137
TJP2 isoform 7 (UniProt Q9UDY2) 0.064
TIFA (UniProt Q96CG3) -0.064
THYN1 (UniProt Q9P016) 0.001
TBCD (UniProt Q9BTW9) 0.061
TBK1 (UniProt Q9UHD2) -0.021
TBC1D24 (UniProt Q9ULP9) 0.08
TK2 isoform 6 (UniProt O00142) -0.018
TEX2 isoform 2 (UniProt Q8IWB9) -0.016
TFE3 (UniProt P19532) -0.546
THRAP3 (UniProt Q9Y2W1) 0.019
THADA (UniProt Q6YHU6) 0.05
TIMM44 (UniProt O43615) 0.056
TCIRG1 (UniProt Q13488) -0.545
TIMM29 (UniProt Q9BSF4) 0.065
TK1 (UniProt P04183) -0.008
TIMM21 (UniProt Q9BVV7) 0.042
TEX30 (UniProt Q5JUR7) 0.073
TKT, A0A0B4J1R6 0.151
TCF25 (UniProt Q9BQ70) -0.095
TCTN3 (UniProt Q6NUS6) 0.02

Compound: C[C@H](C1=CC=C(C=C1)C(=O)NC2=C3C=CNC3=NC=C2)N
Experiment: as above
How it was run: as §1

log2 fold change, inactive:
TERF2IP (UniProt Q9NYB0) -0.099
TBC1D23 (UniProt Q9NUY8) 0
TFAM (UniProt Q00059) 0.117
TGS1 (UniProt Q96RS0) 0.301
TENT5C (UniProt Q5VWP2) 0.011
TIPRL (UniProt O75663) -0.023
TFCP2 (UniProt Q12800) 0.178
TBC1D5 isoform 2 (UniProt Q92609) 0.084
TDRD7 (UniProt Q8NHU6) 0.001
TBC1D20 isoform 3 (UniProt Q96BZ9) 0.036
TGFBI (UniProt Q15582) 0.181
TJP1 (UniProt Q07157) -0.06
TFPI (UniProt P10646) 0.078
TBP (UniProt P20226) 0.303
TBRG4 (UniProt Q969Z0) -0.005
TJP2 isoform 7 (UniProt Q9UDY2) -0.017
TIFA (UniProt Q96CG3) -0.037
THYN1 (UniProt Q9P016) 0.011
TBCD (UniProt Q9BTW9) -0.034
TBK1 (UniProt Q9UHD2) 0.043
TBC1D24 (UniProt Q9ULP9) -0.014
TK2 isoform 6 (UniProt O00142) 0.189
TEX2 isoform 2 (UniProt Q8IWB9) -0.084
TCEAL1 isoform 2 (UniProt Q15170) -0.053
THRAP3 (UniProt Q9Y2W1) -0.111
THADA (UniProt Q6YHU6) 0.018
TCOF1 isoform 6 (UniProt Q13428) -0.025
TIMM44 (UniProt O43615) -0.015
TCIRG1 (UniProt Q13488) 0.483
TIMM29 (UniProt Q9BSF4) -0.033
TK1 (UniProt P04183) -0.097
TIMM21 (UniProt Q9BVV7) -0.029
TEX30 (UniProt Q5JUR7) 0.044
TKT, A0A0B4J1R6 0.199
TCF25 (UniProt Q9BQ70) 0.164
THAP9 (UniProt Q9H5L6) -0.105
